Measured values as given in US6926883B1, “Group (VII) transition-metal complexes with multidentate aminopolycarboxylate ligands and a kit for producing them” (Mallinckrodt Inc, priority 1999, dated 2005).
At least one peptide structure holds a part that was inferred or is arguable (an end, a ring closure or a residue).

Sequences of proteins named here, by UniProt entry; tags and fusion partners are left off. A change or cut given only in a name is not applied to a line headed by its entry.
UniProt P30680: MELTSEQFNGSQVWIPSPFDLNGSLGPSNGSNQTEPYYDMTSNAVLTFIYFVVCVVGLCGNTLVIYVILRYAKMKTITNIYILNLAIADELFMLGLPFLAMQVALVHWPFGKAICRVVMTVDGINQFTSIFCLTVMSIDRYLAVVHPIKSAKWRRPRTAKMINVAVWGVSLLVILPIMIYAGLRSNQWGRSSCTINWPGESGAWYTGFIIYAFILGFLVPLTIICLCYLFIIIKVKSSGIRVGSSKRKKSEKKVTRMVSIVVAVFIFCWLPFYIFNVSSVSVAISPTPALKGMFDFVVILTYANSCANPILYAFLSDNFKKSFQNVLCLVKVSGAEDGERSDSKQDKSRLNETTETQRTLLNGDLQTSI

Target: T1, SST-2 Receptors (Rattus norvegicus, UniProt P30680)
T1 construct: from tissue; host or cells: Lewis rats bearing CA20948 tumor implants
Type: in vivo, Lewis rats
Method: Two rats for each group were used. Group 1 received 500 μL PBS administered subcutaneously in the nape of the neck 30 minutes prior to the injection of [^99mTc(CO)3(DTPA′-Y^3-Octreotate)]. Group 2 received 350 μg Y^3-Octreotate in 500 μL phosphate buffered saline (PBS) administered subcutaneously in the nape of the neck 30 minutes prior to the injection of [^99mTc(CO)3(DTPA′-Y^3-Octreotate)].
30 minutes after injection of the cold peptide or saline control, the animals were anesthetized with Metofane gas and injected with 50 μL (50 μCi) of [^99mTc(CO)3(DTPA′-Y^3-Octreotate)]. At three hours post injection the animals were sacrificed, blood samples taken, and then the rats were scintigraphed for 100K counts (FIG. 3). At the conclusion of the scintigraphy, the animals were necropsied, and the following tissues removed for radioassay: liver, kidneys, muscle, spleen, heart, pancreas, adrenals, and tumor. The data were calculated as % injected dose per gram and % injected dose per whole organ.

## C[C@@H](O)[C@H](NC(=O)[C@@H]1CSSC[C@H](NC(=O)[C@@H](Cc2ccccc2)NC(=O)CC(C(=O)O)N(CCN(CC(=O)O)CC(=O)O)CCN(CC(=O)O)CC(=O)O)C(=O)N[C@@H](Cc2ccc(O)cc2)C(=O)N[C@H](Cc2c[nH]c3ccccc23)C(=O)N[C@@H](CCCCN)C(=O)N[C@@H]([C@@H](C)O)C(=O)N1)C(=O)O (some centres unmarked) [MP-2148, Tc-99m(CO)3-DTPA′-Tyr-3-Octreotate, metal not drawn]
Blocked vs saline
  Change of uptake in blood, liver, kidney, muscle, spleen and heart between the two animal groups: did not change significantly
rat, in vivo
  Receptor specificity: receptor specific
